Four molecules from paper PMC11043345 can be followed below.

Amino acid sequences for entries named in this document (tags omitted).
UniProt Q03181: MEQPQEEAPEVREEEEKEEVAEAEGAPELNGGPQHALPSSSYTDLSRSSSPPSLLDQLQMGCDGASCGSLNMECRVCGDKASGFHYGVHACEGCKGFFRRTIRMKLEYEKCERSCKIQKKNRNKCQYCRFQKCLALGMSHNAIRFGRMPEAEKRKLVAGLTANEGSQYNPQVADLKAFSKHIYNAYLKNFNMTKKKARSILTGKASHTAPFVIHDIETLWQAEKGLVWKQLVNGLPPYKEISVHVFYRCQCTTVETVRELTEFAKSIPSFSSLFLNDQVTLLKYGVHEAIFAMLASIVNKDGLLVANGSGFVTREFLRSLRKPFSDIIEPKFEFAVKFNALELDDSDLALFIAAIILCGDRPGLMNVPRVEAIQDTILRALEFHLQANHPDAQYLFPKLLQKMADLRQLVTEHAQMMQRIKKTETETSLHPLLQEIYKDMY
UniProt P17676: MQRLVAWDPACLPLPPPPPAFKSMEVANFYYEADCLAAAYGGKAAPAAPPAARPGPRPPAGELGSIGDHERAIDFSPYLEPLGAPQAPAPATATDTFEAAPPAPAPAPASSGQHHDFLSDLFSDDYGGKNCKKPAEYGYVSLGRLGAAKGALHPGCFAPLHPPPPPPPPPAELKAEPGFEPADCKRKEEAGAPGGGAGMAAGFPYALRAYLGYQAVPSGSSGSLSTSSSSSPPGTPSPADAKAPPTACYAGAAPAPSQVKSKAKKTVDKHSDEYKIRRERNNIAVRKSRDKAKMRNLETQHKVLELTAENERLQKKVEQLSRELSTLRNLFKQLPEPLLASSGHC
UniProt P16220: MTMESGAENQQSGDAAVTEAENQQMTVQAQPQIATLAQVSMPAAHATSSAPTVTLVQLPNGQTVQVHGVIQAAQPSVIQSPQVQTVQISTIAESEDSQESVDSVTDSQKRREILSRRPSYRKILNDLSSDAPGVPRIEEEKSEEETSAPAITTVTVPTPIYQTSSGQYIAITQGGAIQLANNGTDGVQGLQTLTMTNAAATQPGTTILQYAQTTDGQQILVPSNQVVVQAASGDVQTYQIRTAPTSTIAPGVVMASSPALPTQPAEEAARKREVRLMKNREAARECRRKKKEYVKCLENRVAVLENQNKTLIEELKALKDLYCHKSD
UniProt P19793: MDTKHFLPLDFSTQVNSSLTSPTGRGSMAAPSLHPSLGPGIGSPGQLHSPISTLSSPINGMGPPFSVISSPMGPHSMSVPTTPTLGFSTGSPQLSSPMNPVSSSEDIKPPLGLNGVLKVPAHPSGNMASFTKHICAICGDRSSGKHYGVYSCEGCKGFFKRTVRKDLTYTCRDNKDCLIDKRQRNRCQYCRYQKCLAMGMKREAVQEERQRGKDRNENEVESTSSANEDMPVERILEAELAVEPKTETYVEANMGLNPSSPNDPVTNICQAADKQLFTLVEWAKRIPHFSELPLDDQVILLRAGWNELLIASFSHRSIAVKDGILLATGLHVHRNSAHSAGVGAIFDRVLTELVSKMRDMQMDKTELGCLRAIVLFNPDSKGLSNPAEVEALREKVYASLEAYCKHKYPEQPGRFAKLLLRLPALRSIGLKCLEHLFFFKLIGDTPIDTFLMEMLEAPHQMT
UniProt Q96EB6: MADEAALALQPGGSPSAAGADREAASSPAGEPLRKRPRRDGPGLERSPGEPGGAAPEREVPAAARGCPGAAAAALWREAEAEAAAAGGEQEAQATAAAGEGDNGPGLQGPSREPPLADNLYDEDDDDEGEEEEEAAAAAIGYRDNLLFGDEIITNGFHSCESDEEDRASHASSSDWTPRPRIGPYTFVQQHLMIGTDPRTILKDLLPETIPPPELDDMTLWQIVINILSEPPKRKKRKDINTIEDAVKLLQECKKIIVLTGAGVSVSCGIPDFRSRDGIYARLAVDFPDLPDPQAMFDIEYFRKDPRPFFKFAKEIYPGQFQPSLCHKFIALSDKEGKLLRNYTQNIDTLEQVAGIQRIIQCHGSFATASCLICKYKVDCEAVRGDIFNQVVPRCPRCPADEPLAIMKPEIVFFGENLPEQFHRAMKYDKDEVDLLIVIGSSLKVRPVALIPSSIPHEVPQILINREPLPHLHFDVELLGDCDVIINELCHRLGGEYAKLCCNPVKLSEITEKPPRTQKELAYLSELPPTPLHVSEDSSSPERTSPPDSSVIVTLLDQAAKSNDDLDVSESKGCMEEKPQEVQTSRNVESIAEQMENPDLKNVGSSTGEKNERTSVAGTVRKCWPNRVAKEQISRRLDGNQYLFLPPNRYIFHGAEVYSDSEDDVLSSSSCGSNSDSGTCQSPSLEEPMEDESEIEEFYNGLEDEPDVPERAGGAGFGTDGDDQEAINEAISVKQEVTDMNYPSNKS
UniProt P37238: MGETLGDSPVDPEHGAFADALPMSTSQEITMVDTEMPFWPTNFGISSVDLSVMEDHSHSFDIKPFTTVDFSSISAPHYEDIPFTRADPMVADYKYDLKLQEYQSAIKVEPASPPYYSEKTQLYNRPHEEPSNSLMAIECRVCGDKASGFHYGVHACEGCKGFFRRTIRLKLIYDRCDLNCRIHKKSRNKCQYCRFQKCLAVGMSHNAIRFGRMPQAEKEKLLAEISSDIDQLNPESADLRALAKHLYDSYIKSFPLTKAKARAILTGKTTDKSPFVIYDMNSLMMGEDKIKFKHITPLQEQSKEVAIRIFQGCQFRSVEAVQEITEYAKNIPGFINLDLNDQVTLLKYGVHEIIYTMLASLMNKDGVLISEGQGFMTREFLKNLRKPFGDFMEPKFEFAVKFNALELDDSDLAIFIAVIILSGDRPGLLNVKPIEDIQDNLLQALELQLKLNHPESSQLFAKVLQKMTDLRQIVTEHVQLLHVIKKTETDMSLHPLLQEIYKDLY
UniProt Q9QXG4: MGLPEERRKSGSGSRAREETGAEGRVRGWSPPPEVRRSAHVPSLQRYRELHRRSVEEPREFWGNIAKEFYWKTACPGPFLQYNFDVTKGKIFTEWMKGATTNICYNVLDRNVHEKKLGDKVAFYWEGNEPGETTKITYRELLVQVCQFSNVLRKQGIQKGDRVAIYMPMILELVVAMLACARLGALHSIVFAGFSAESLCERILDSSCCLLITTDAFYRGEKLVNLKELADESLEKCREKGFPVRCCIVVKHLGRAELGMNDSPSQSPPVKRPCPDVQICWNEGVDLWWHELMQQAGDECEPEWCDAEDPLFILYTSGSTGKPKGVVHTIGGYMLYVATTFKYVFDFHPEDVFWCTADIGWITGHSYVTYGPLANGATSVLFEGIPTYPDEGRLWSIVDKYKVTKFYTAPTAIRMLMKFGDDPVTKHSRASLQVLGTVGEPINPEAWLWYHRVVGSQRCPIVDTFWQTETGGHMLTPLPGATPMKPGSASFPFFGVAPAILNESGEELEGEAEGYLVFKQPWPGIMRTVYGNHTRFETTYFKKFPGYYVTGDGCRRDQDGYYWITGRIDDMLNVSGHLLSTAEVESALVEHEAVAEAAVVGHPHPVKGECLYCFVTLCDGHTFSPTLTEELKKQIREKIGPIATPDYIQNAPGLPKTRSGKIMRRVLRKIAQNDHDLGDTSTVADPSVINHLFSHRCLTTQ
UniProt Q60974: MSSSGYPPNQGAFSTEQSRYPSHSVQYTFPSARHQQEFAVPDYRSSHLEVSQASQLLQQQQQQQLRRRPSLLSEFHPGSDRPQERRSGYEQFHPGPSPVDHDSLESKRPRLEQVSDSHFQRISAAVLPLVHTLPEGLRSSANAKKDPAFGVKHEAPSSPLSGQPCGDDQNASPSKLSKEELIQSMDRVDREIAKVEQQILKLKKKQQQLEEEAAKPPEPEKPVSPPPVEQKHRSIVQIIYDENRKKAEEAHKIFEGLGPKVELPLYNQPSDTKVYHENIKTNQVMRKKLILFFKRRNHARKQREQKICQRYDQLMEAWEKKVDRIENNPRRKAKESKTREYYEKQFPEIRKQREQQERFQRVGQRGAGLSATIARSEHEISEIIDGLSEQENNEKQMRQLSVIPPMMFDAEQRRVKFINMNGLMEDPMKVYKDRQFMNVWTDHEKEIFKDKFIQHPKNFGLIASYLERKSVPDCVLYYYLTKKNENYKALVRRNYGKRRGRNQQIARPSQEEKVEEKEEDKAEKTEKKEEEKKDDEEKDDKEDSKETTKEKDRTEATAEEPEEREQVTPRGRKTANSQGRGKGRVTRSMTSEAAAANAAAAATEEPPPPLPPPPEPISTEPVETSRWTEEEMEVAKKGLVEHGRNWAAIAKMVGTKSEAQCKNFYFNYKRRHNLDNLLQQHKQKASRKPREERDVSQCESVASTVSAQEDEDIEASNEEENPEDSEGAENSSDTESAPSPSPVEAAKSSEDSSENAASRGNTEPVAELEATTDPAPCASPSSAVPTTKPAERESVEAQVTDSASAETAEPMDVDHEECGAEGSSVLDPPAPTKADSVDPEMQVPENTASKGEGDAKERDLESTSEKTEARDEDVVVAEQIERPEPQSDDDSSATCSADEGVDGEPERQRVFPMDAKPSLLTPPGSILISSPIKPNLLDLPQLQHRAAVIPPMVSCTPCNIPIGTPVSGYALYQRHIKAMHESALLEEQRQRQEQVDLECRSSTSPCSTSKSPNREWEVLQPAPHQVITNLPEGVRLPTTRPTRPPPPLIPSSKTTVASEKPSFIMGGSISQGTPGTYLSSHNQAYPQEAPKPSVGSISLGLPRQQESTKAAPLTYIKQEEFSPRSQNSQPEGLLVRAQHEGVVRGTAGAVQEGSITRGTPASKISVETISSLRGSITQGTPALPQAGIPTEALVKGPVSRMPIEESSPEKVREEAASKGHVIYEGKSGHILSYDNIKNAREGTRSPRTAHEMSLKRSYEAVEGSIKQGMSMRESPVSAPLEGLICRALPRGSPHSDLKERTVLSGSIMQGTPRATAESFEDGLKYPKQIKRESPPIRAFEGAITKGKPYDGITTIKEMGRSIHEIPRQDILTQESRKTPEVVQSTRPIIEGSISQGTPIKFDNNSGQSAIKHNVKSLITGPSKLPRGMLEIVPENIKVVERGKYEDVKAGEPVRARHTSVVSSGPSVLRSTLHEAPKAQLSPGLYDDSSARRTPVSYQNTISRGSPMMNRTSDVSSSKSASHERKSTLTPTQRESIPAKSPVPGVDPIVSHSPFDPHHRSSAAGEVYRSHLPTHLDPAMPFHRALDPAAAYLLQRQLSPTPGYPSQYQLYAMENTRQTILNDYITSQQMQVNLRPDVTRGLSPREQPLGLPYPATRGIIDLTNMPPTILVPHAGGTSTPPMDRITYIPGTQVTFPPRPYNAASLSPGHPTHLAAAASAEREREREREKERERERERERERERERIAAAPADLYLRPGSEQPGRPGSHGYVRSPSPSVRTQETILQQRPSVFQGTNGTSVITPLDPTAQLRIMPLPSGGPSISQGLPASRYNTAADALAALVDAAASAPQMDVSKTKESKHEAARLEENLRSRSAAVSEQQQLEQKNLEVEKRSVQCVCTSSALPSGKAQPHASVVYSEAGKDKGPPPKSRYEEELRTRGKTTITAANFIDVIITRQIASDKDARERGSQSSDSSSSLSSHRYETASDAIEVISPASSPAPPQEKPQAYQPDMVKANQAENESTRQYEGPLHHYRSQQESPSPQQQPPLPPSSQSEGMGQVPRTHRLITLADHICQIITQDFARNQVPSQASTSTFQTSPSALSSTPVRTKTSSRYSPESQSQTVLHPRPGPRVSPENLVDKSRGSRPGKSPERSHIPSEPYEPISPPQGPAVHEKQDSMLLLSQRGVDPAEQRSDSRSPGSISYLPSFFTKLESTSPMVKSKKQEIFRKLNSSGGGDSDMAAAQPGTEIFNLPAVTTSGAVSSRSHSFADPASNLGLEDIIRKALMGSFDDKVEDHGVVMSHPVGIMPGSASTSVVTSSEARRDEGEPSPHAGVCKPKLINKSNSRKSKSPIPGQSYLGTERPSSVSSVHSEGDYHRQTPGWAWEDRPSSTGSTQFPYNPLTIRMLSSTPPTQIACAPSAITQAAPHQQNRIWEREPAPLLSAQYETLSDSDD

No constants are given. Whether binding was seen depends on the method and setting. Binding seen in cells or lysates may run through a third protein. Some entries that bind do so weakly or less than the wild type.

Test [1] deals with T1, PPARα (UniProt Q07869).
T1 sequence: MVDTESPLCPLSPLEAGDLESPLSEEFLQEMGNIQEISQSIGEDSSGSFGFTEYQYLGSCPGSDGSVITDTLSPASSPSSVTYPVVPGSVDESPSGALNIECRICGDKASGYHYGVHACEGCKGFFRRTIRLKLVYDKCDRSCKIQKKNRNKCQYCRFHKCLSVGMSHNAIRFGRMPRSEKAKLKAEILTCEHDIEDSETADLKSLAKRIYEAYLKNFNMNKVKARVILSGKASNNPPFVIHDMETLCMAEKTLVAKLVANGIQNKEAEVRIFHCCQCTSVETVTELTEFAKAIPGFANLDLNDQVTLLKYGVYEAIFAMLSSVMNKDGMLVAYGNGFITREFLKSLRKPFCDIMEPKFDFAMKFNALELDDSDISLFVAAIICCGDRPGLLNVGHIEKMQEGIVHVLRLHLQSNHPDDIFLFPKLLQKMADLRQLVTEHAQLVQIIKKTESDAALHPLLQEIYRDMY
The test is described as follows: split reporter; BiFC in HEK293T cells transfected with pBiFC-VN173 and pBiFC-VC155 fusions, imaged after 24 h (LSM780), DAPI for the nucleus; in some panels 10 μM rosiglitazone or GW9662 for 16 h or 25 mM D-mannose.

The target in test [2] is PPARβ (UniProt Q03181). The description is as above.
The next test addresses CEBPβ (UniProt P17676). Briefly: co-IP; exogenous IP from transfected HEK293T cells lysed in IP buffer; indicated antibodies overnight at 4 °C, protein A or G agarose beads 3 h, 5 washes, immunoblot; in some panels rosiglitazone or GW9662 (0-10 μM, 16 h), 25 mM D-mannose, or co-expressed P300, SIRT1, ACSS2 or PPARγ mutants. Background: A western blot detects proteins with antibodies after separation by electrophoresis.

The target of a further test is CREB (UniProt P16220). The test is described as above.
The target of the next test is FLAG-tagged RXRα (UniProt P19793). The test is described as above.
In another test the target is P300 (UniProt Q09472). The test is described as above.
The target of test [3] is T1, PPARα. The test is described as above.
Test [4] concerns the target PPARβ (UniProt Q03181). Described as above.
Another test deals with SIRT1 (UniProt Q96EB6). The description is as above.
Test [5] has as its target PPARγ, endogenous mouse (mouse (endogenous in BAT, ingWAT and beige adipocytes)) (UniProt P37238). The test is described as follows: co-IP; endogenous IP from mouse BAT and ingWAT lysates in IP buffer; indicated antibodies overnight at 4 °C, protein A or G agarose beads 3 h, 5 washes, immunoblot.
The target is the same in test [6]. The test is described as follows: co-IP; IP of PPARγ from differentiated beige adipocytes of wild type or Acss2-/- mice, immunoblot.

Regarding “FLAG-tagged full length human ACSS2 (VN173-Flag-ACSS2) (from UniProt Q9NR19-1 1-701)”, the binding result with PPARα [1] is “binds”; with PPARβ [2], “binds”; with CEBPβ, “no binding”; in the test with CREB it was “no binding”; with FLAG-tagged RXRα, “binds”; with P300, “binds”. For the same molecule, the binding entry with PPARα [3] is recorded as “binds”; in the test with PPARβ [4], “binds”; with SIRT1, “no binding”.

With “acetyl-CoA synthetase short-chain family member 2 (ACSS2), endogenous mouse (from UniProt Q9QXG4 1-701)”, the binding result in test [5] is given as “binds”.

For “NCoR1, endogenous mouse (from UniProt Q60974 1-2453)”, in test [6], the binding result is on record as “binds”.

B1: Sin3A, endogenous mouse (protein, UniProt Q60520 1-1274)
chain: MKRRLDDQESPVYAAQQRRIPGSTEAFSHQHRVLAPAPPVYEAVSETMQSATGIQYSVAPNYQVSAVPQSSGSHGPAIAAVHSSHHHPTAVQPHGGQVVQSHAHPAPPVAPVQGQQQFQRLKVEDALSYLDQVKLQFGSQPQVYNDFLDIMKEFKSQSIDTPGVISRVSQLFKGHPDLIMGFNTFLPPGYKIEVQTNDMVNVTTPGQVHQIPTHGIQPQPQPPPQHPSQPSSQSAPTPAQPAPQPTAAKVSKPSQLQAHTPASQQTPPLPPYASPRSPPVQPHTPVTISLGTAPSLQNNQPVEFNHAINYVNKIKNRFQGQPDIYKAFLEILHTYQKEQRNAKEAGGNYTPALTEQEVYAQVARLFKNQEDLLSEFGQFLPDANSSVLLSKTTAEKVDSVRNDHGGTVKKPQLNNKPQRPSQNGCQIRRHSGTGATPPVKKKPKLMSLKESSMADASKHGVGTESLFFDKVRKALRSAEAYENFLRCLVIFNQEVISRAELVQLVSPFLGKFPELFNWFKNFLGYKESVHLESFPKERATEGIAMEIDYASCKRLGSSYRALPKSYQQPKCTGRTPLCKEVLNDTWVSFPSWSEDSTFVSSKKTQYEEHIYRCEDERFELDVVLETNLATIRVLEAIQKKLSRLSAEEQAKFRLDNTLGGTSEVIHRKALQRIYADKAADIIDGLRKNPSIAVPIVLKRLKMKEEEWREAQRGFNKVWREQNEKYYLKSLDHQGINFKQNDTKVLRSKSLLNEIESIYDERQEQATEENAGVPVGPHLSLAYEDKQILEDAAALIIHHVKRQTGIQKEDKYKIKQIMHHFIPDLLFAQRGDLSDVEEEEEEEMDVDEATGAPKKHNGVGGSPPKSKLLFSNTAAQKLRGMDEVYNLFYVNNNWYIFMRLHQILCLRLLRICSQAERQIEEENREREWEREVLGIKRDKSDSPAIQLRLKEPMDVDVEDYYPAFLDMVRSLLDGNIDSSQYEDSLREMFTIHAYIAFTMDKLIQSIVRQLQHIVSDEVCVQVTDLYLAENNNGATGGQLNSQTSRSLLESAYQRKAEQLMSDENCFKLMFIQSQGQVQLTVELLDTEEENSDDPVEAERWSDYVERYMSSDTTSPELREHLAQKPVFLPRNLRRIRKCQRGREQQEKEGKEGNSKKTMENVESLDKLECRFKLNSYKMVYVIKSEDYMYRRTALLRAHQSHERVSKRLHQRFQAWVDKWTKEHVPREMAAETSKWLMGEGLEGLVPCTTTCDTETLHFVSINKYRVKYGTVFKAP
On to B1, for which, in [6], the binding entry is “binds”.
